From PubChem BioAssay AID624297 (National Center for Advancing Translational Sciences (NCATS), 2012)
Screen size: about 340,000 compounds; about 6,200 (1.8%) were called active. The shares of active, inactive and inconclusive entries below differ from those in the screen. The call rests on the fitted dose curve; in most records, active means well fitted activation curve with a large enough effect; inconclusive means small, poorly fitted or top-dose-only effect; inactive means no such curve, though single readings can be large or run the other way. A potency beside an inconclusive call is a rough fit, not a confirmed value.

assay: A quantitative high throughput screen for small molecules that induce DNA re-replication in SW480 colon adenocarcinoma cells.; further: nearly all actives have a fitted effect of over 55% in size; conditions: Hoechst DNA content imaging, 48 h; series mostly up to 46.1 µM
Summary of the method: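 Cells (250 per well) received 23 nL compound or DMSO by pin tool and were kept 48 hr at 37 C, 5% CO2. Nuclei were then stained with Hoechst for 40 min and scanned for DNA content.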
Potency means the concentration at half of the fitted maximal effect.

SMILES | Potency
COc1ccc(CNC(=O)CCC(=O)N2CCN(S(=O)(=O)c3ccc(Cl)cc3)CC2)cc1 | inconclusive: 29.1 µM [activator, single point]
Cc1cccc(C)c1NC(=O)COC(=O)c1c(C)nn(-c2ccccc2)c1C | inconclusive: 6.51 µM [activator, single point]
COc1ccccc1CNC(=O)COC(=O)C1CCN(S(=O)(=O)c2c(Cl)cccc2Cl)CC1 | inconclusive: 29.1 µM [activator, single point]
Clc1cccc(/C=N/Nc2ncnc3ccccc23)c1 | inconclusive: 29.1 µM [activator, single point]
COc1ccc(Nc2cc(C)nc3ncnn23)cc1Cl | inconclusive: 0.411 µM [activator, full curve, poor fit]
O=C(O)c1ccccc1NC(=O)N1CCOCC1 | inactive
C[C@H](CO)N1C[C@H](C)[C@@H](CN(C)C(=O)Nc2ccccc2)Oc2c(NS(=O)(=O)c3ccc(F)cc3)cccc2C1=O | inactive
COc1ccc(CCNC(=O)COC(=O)c2cc(S(=O)(=O)N3CCOCC3)ccc2C)cc1OC | inactive
O=C(c1ccoc1)N1CCC2(CC1)Oc1ccc(F)cc1C(=O)C21CC(c2ccccc2)=NO1 (stereo unspecified) | inconclusive: 6.51 µM [activator, single point]
Cc1cccc2cc(CN(CC3CCCO3)C(=O)c3cnccn3)c(=O)[nH]c12 (stereo unspecified) | inconclusive: 32.6 µM [activator, partial curve, poor fit]
CN1CCN(CC#CCn2c3ccccc3c3ccccc32)CC1 | inconclusive: 23.1 µM [activator, single point]
COC(=O)C1=C(CS(=O)(=O)c2ccccc2)NC(=O)NC1c1ccc(OC)c(OC)c1 (stereo unspecified) | inconclusive: 29.1 µM [activator, single point]
COc1cc(N[C@@H](C)CCCN)c2ncccc2c1 | inconclusive: 14.3 µM [activator, single point]
CCOC(=O)c1c(C)n(-c2ccc(C)cc2)c2c(C(C(C)=O)C(=O)O)c(Br)c(O)c(O)c12 (stereo unspecified) | inconclusive: 20.6 µM [activator, partial curve, poor fit]
CC1=CC2=NC(=O)/C(=C\c3cccn3CCOc3ccccc3C)C(=N)N2O1 | inactive
O=[N+]([O-])c1ccc(NCCNS(=O)(=O)c2ccccc2)cc1 | inactive
COc1c(Cl)cccc1-c1cn2ccc(C)cc2n1 | inconclusive: 29.1 µM [activator, single point]
N#CCC(=O)N1CCN(C(c2ccccc2)c2ccccc2)CC1 | inconclusive: 0.517 µM [activator, partial curve, poor fit]
Cc1cc(Cl)ccc1Nc1ncccc1C(N)=O | inconclusive: 4.61 µM [activator, partial curve, poor fit]
Oc1nc(Nc2ccc(F)cc2)sc1/C=C1\C=Nc2ccccc21 | inconclusive: 29.1 µM [activator, single point]
CC(C)(C)c1cc(N)n2nc(C(C)(C)C)cc2n1 | inactive
CCC1(CC)NC(=O)N(CC(=O)N2N=C(c3ccc(Cl)cc3)CC2c2ccco2)C1=O (stereo unspecified) | inconclusive: 29.1 µM [activator, single point]

Three entries picked at random from the list so far:
SMILES | Potency
O=C(c1ccoc1)N1CCC2(CC1)Oc1ccc(F)cc1C(=O)C21CC(c2ccccc2)=NO1 (stereo unspecified) | inconclusive: 6.51 µM [activator, single point]
CC1=CC2=NC(=O)/C(=C\c3cccn3CCOc3ccccc3C)C(=N)N2O1 | inactive
COc1ccc(CNC(=O)CCC(=O)N2CCN(S(=O)(=O)c3ccc(Cl)cc3)CC2)cc1 | inconclusive: 29.1 µM [activator, single point]

(listing goes on)

SMILES | Potency
Cn1cnc2c1c(=O)n(Cc1ccc(Cl)cc1Cl)c(=O)n2C | inactive
COc1ccc(C=O)cc1C1=CC(=O)C[C@H](c2ccc(Cl)cc2)C1 | inconclusive: 20.6 µM [activator, single point]
CN(CCc1nc2ccccc2[nH]1)Cc1nc(CC2CC2)no1 | inconclusive: 3.66 µM [activator, single point]
O=C(CCl)Nc1cccc(S(=O)(=O)N2CCCCCC2)c1 | active: 13 µM
O=C(CC(c1ccccc1)(c1ccccc1)c1ccccc1)N[C@@H](Cc1ccccc1)C(=O)O | inconclusive: 0.13 µM [activator, full curve, poor fit]
O=C(N/N=C/c1c(O)n(-c2ccccc2Cl)c(=O)c2ccccc12)c1cccnc1 | active: 16.4 µM
O=C(/C=C/c1ccc2c(c1)OCO2)NCCCN1CCOCC1 | inconclusive: 0.92 µM [activator, full curve, poor fit]
CCc1cc2c(=O)c(-c3nc4ccccc4[nH]3)coc2cc1OC(=O)N1CCOCC1 | inactive
Cc1oc2cc(O)ccc2c(=O)c1Oc1ccccc1 | inconclusive: 29.1 µM [activator, single point]
CC(C)(CNC(=O)c1cc(-c2ccc(Cl)s2)nc2ccccc12)N1CCOCC1 | active: 23.1 µM
c1cncc(-c2csc(-c3cccnc3)n2)c1 | inactive
COc1ccc2c(=O)c(-c3ccc4c(c3)OCO4)coc2c1 | inactive
COCCN1CCN(c2cc(-c3ccccc3)nc3cc(-c4cccc(F)c4)nn23)CC1 | inconclusive: 20.6 µM [activator, single point]
CS(=O)(=O)Nc1cccc(C2=NN(C(=O)c3ccco3)C(c3cccs3)C2)c1 (stereo unspecified) | inconclusive: 29.1 µM [activator, single point]
O=C(O)c1cc(S(=O)(=O)Nc2ccc3cn[nH]c3c2)ccc1O | inactive
CC(=O)Nc1ccc(S(=O)(=O)NCc2ccc(C)cc2)cc1 | inconclusive: 0.164 µM [activator, full curve, poor fit]
COc1ccc2cc(C(=O)/C=C/c3cc(OC)c(OC)c(OC)c3)ccc2c1 | active: 20.6 µM
Cc1ccc2c(c1)-c1c(ssc1=S)C(C)(C)N2C(=O)c1ccco1 | inconclusive: 25.9 µM [activator, single point]
Cc1cc(C(=O)Nc2nc3c(s2)CCCC3)cs1 | inactive
CCN(C(=O)COC(=O)CCOc1ccc(C(C)(C)C)cc1)c1c(N)n(Cc2ccccc2)c(=O)[nH]c1=O | inactive
O=C(CN1C(=O)c2ccc([N+](=O)[O-])cc2C1=O)NCC1CCCO1 (stereo unspecified) | inconclusive: 6.51 µM [activator, single point]
O=c1c2c3c(sc2[nH]c(=S)n1Cc1ccco1)CCC3 | inconclusive: 25.9 µM [activator, partial curve, poor fit]

Some values from the entries so far:
Entry for `Cc1ccc2c(c1)-c1c(ssc1=S)C(C)(C)N2C(=O)c1ccco1` under Potency: inconclusive: 25.9 µM [activator, single point]
Entry for `O=C(O)c1cc(S(=O)(=O)Nc2ccc3cn[nH]c3c2)ccc1O` under Potency: inactive

(continued)

SMILES | Potency
Cc1ccc(N2CCN(c3ccc(NCc4nc5ccccc5n4C)cc3)CC2)cc1 | inactive
CCOC(=O)c1cnc(SC2CC(=O)N(c3cccc(OC)c3)C2=O)nc1N (stereo unspecified) | inconclusive: 35.5 µM [activator, single point]
O=C(CSCc1ccccc1)NNC(=S)Nc1cccc(Cl)c1Cl | inconclusive: 18.4 µM [activator, partial curve, poor fit]
Nc1c(C(=O)NCc2ccccc2)nnn1Cc1cccc(Cl)c1 | inconclusive: 16.4 µM [activator, single point]
O=c1nccc(N/N=C/c2ccccc2O)[nH]1 | inconclusive: 4.61 µM [activator, full curve, poor fit]
COc1cc([N+](=O)[O-])cc(/C=N/NC(=O)Cn2nccc2C)c1O | active: 16.4 µM
O=C(/C=C\c1ccc2c(c1)OCO2)CC1(O)C(=O)Nc2ccccc21 (stereo unspecified) | inconclusive: 0.651 µM [activator, full curve, poor fit]
CN(c1ccccc1)S(=O)(=O)c1cc(C(=O)Nc2nc3ccccc3[nH]2)ccc1Cl | inconclusive: 23.1 µM [activator, single point]
COc1ccc(C(C)=O)c(Oc2cc(NN3CCCCC3)c([N+](=O)[O-])cc2[N+](=O)[O-])c1 | inconclusive: 8.2 µM [activator, partial curve, poor fit]
O=C(NCc1cccc(C(F)(F)F)c1)c1ccc2c(c1)OCO2 | inconclusive: 2.59 µM [activator, full curve]
CCN(CCn1cccn1)C(=O)CC1C(=O)NCCN1Cc1ccc(OC)c(OC)c1 (stereo unspecified) | inconclusive: 5.8 µM [activator, single point]
CC1=NOC(=O)/C1=C\c1ccc2c(c1)OCO2 | inconclusive: 29.1 µM [activator, single point]
CN(C)CCCN(C(=O)COc1ccccc1)c1nc2ccc(Cl)cc2s1 | inconclusive: 16.4 µM [activator, single point]
O=C(CSc1nnnn1-c1ccccc1)Nc1ncc2c(n1)CC(c1ccccc1)CC2=O (stereo unspecified) | inconclusive: 29.1 µM [activator, single point]
CCOC(=O)C1CCCN(C(=O)COc2ccc(C(=O)c3ccccc3)cc2)C1 (stereo unspecified) | inconclusive: 6.51 µM [activator, partial curve, poor fit]
O=C(O)CCN1C(=O)/C(=C2\C(=O)N(Cc3ccc(F)cc3)c3ccccc32)SC1=S | inconclusive: 11.6 µM [activator, single point]
CCN(c1ccccc1)S(=O)(=O)c1cc(C(=O)Nc2ccc(F)c(F)c2)ccc1F | inconclusive: 29.1 µM [activator, single point]
CCCC(/C=C/c1ccc(OC(C)=O)cc1)=C1/c2ccccc2C(=O)N1c1ccccc1 | inconclusive: 29.1 µM [activator, single point]
O=C(CCSc1ccccc1)NNC(=O)c1ccccc1F | inconclusive: 0.517 µM [activator, partial curve, poor fit]
O=C(Nc1cccc(/C=C/c2ccccn2)c1)c1ccc(-n2cncn2)cc1 | inactive
CCOC(=O)N1CCN(C(=O)/C=C/c2ccc(OC)c(OC)c2)CC1 | inconclusive: 0.184 µM [activator, full curve, poor fit]
CC(C)N1CCN(c2ccc(OCC3COC(Cn4cncn4)(c4ccc(Cl)cc4Cl)O3)cc2)CC1 (stereo unspecified) | inconclusive: 29.1 µM [activator, single point]
